Results are given in words; binding and its absence hold for the method and conditions named. Some entries that bind do so weakly or less than the wild type.

Amino acid sequences for entries named in this document (tags omitted). A change or cut given only in a name is not applied to a line headed by its entry.
UniProt P10636: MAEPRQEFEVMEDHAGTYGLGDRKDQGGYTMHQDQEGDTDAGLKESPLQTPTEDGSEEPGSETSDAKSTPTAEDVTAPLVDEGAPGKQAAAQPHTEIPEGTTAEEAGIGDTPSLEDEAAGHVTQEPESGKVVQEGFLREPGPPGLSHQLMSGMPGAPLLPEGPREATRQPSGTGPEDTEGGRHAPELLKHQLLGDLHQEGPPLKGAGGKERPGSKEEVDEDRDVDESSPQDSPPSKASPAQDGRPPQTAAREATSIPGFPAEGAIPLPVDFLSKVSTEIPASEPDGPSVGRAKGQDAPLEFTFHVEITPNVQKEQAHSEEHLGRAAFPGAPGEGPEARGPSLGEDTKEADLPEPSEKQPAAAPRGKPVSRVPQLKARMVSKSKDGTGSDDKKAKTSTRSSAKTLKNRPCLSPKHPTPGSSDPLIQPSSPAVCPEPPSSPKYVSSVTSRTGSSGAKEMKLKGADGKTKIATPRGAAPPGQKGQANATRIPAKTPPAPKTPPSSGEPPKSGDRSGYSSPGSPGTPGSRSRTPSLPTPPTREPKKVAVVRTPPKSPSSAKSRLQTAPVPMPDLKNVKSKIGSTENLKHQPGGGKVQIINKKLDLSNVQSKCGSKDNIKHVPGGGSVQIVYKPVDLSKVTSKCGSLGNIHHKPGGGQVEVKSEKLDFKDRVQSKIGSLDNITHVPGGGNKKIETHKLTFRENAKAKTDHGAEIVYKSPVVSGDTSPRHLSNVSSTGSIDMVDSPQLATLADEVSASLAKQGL

The source of these data is patent US20160018417A1.

Experiment [1] deals with T1, ΔSil1 construct (Sil1 construct lacking an ER signal) (human) (UniProt Q9H173).
T1 sequence: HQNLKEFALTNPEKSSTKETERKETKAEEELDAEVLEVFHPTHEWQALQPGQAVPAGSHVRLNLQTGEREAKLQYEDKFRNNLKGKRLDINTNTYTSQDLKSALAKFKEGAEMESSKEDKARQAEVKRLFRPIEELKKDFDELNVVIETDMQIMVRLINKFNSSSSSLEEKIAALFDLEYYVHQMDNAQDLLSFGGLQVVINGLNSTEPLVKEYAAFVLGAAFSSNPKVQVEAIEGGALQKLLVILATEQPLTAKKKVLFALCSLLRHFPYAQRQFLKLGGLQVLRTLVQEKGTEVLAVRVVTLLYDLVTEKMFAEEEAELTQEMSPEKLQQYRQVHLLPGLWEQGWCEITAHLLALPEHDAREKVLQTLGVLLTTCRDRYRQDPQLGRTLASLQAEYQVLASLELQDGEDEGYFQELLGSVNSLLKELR
Description: immunoprecipitation of human tau from co-transfected cells, Western blot.

Experiment [2] has as its target T2, ΔSil1Δ construct (Sil1 construct lacking ER targeting and ER retention signals) (human) (UniProt Q9H173).
T2 sequence: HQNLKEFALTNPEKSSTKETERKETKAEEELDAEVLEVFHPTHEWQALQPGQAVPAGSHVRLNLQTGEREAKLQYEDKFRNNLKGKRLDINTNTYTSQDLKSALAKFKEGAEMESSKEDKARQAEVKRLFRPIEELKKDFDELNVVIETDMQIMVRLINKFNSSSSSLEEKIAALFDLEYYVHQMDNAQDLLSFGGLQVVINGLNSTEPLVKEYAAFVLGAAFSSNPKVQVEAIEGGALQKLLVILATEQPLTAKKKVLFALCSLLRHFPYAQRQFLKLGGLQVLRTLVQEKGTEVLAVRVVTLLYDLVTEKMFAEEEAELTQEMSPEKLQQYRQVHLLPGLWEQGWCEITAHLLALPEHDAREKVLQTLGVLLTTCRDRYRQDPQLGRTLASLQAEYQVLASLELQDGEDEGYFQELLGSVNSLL
The description is as above.

In the case of “human tau (hTau) (from UniProt P10636 2-758)”, the binding result in experiment [1] and in experiment [2] was “binds” each time.
